{"sequences": {"note": "By UniProt entry, the sequences of proteins in these tests, tags left out. Where a name states a change or a piece, a line headed by the entry shows the natural chain unless it says otherwise.", "UniProt P51450": "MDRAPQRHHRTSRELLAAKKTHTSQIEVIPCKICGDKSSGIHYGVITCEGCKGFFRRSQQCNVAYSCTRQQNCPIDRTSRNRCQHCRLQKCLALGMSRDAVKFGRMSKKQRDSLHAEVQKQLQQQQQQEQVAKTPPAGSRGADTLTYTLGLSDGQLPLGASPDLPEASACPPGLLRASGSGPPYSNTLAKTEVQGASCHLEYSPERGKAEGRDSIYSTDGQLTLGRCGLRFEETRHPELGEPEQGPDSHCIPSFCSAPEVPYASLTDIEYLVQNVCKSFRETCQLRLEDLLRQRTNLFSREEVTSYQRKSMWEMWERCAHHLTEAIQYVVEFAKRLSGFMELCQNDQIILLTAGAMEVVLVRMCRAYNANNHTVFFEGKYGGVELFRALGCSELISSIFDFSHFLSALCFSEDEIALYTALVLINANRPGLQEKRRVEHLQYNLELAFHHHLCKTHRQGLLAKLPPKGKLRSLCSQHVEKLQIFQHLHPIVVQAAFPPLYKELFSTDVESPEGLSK"}, "source": "PubChem BioAssay AID2551", "about": "(National Center for Advancing Translational Sciences (NCATS), 2010)", "note": "The campaign covered roughly 310,000 compounds. About 17,000 (5.5%) were called active. Inconclusive results, whose numbers are uncertain, are shown with a selection of clear calls. Calls come from the whole dose curve; as a rule, active = well fitted inhibition curve with a large enough effect; inconclusive = small, poorly fitted or top-dose-only effect, or effect the other way; inactive = no such curve, though single readings can be large or run the other way. A potency beside an inconclusive call is a rough fit, not a confirmed value. % is set by controls: 0 for no effect and ±100 for the full control effect; potency is the fitted concentration of half-maximal effect."}
{"target": "Nuclear receptor ROR-gamma (Mus musculus) (UniProt P51450)", "assay": "qHTS for inhibitors of ROR gamma transcriptional activity; note: nearly all actives have a fitted effect of over 60% in size", "conditions": "Drosophila S2 Gal4-RORgamma UAS-luciferase reporter, 20 h; activity change, negative = inhibition: at 53.6 µM (top of the series)", "outline": "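ROR gamma transcriptional activity was tracked as Gal4-UAS luciferase output in stably transfected Drosophila Schneider cells, with compound added 1 hr before 700 uM copper sulfate induction and a 20 hr ambient-temperature incubation.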"}
{"molecule": "CN1CCN(C(=O)c2ccc(CSc3ccc(Cl)cc3)cc2)CC1", "Potency": "inconclusive: 20 µM [activator, partial curve]"}
{"molecule": "CCN(CC)S(=O)(=O)c1cc(NS(=O)(=O)c2c(Cl)cccc2Cl)ccc1C", "Potency": "inconclusive: 11.2 µM [inhibitor, single point]"}
{"molecule": "O=C(c1ccc2c(=O)n(Cc3ccccc3)c(=S)[nH]c2c1)N1CCOCC1", "Potency": "inconclusive: 12.6 µM [inhibitor, single point]"}
{"molecule": "O=C(COC(=O)c1ccc([N+](=O)[O-])o1)Nc1cccc(S(=O)(=O)N2CCCCC2)c1", "Potency": "inconclusive: 20 µM [inhibitor, single point]"}
{"molecule": "FC(F)(F)c1ccc(Cl)c(NC(=S)N/N=C/c2ccccc2C(F)(F)F)c1", "Potency": "active: 0.316 µM"}
{"molecule": "COc1ccc(OC)c(N(C(=O)c2ccco2)C(C(=O)NC2CCCC2)c2cc(OC)c(OC)c(OC)c2)c1", "note": "(stereo unspecified)", "Potency": "inactive"}
{"molecule": "O=C(Nc1nnc(-c2cccs2)o1)c1cc(-c2ccccc2)nc2ccccc12", "Potency": "active: 1.41 µM"}
{"molecule": "Cc1nc(Nc2ccccc2C(F)(F)F)sc1C(=O)N(C)C", "Potency": "inconclusive: 3.16 µM [activator, full curve, poor fit]"}
{"molecule": "O=C(Cc1ccccc1[N+](=O)[O-])Nc1ccccc1C(=O)N1CCOCC1", "Potency": "inactive"}
{"molecule": "Cc1noc(C)c1C(=O)N1CCC(CO)(Cc2ccccc2)CC1", "Potency": "inconclusive: 35.5 µM [activator, partial curve]"}
{"molecule": "COc1ccccc1C#Cc1ccc2c(=O)c3ccccc3n(C)c2c1", "Potency": "inconclusive: 20 µM [activator, single point]"}
{"molecule": "CC1CCN(C(=O)c2cc3c(ccc4ccccc43)o2)CC1", "Potency": "active: 4.47 µM"}
{"molecule": "COc1ccc(-c2ccc(SCC(=O)N3CCOCC3)nn2)cc1", "Potency": "inconclusive: 11.2 µM [inhibitor, partial curve]"}
{"molecule": "C/C(=N\\NC(=O)c1ccc(Cl)c(S(=O)(=O)Nc2ccccc2Cl)c1)c1ccncc1", "Potency": "inconclusive: 35.5 µM [inhibitor, single point]"}
{"molecule": "COc1ccccc1-n1cc(-c2ccc([N+](=O)[O-])cc2)[nH]c1=S", "Potency": "active: 1.58 µM"}
{"molecule": "COc1cc(/C=N/Nc2nc3ccccc3o2)cc(OC)c1O", "Potency": "inconclusive: 35.5 µM [inhibitor, single point]"}
{"molecule": "O=C(CCC(=O)OCC(=O)c1ccc(-c2ccccc2)cc1)Nc1cccc2cccnc12", "Potency": "active: 1.58 µM"}
{"molecule": "CC(C)c1ccccc1NC(=S)NC1CCCCC1", "Potency": "active: 0.447 µM"}
{"molecule": "NC(=O)c1ccc(N2CCC(C(N)=O)CC2)c([N+](=O)[O-])c1", "Potency": "inactive"}
{"molecule": "CSc1nc2ccc3nc(NC(=O)C4COc5ccccc5O4)sc3c2s1", "note": "(stereo unspecified)", "Potency": "active: 10 µM"}
{"molecule": "COc1ccc2[nH]c(O)c(N=NC(=N)N)c2c1", "Potency": "inactive"}
{"molecule": "Cc1nc([N+](=O)[O-])c(Br)n1CC(=O)c1ccc(Cl)cc1", "Potency": "active: 10 µM"}
{"molecule": "FC(F)(F)c1nc(Oc2ccccc2)c2ccccc2n1", "Potency": "inconclusive: 3.16 µM [activator, partial curve]"}
{"molecule": "Cc1nc(COC(=O)c2cc(O)c3ccccc3c2O)cs1", "Potency": "inconclusive: 35.5 µM [inhibitor, single point]"}
{"molecule": "O=C(CN(Cc1ccccc1)S(=O)(=O)c1ccccc1)N/N=C/c1ccccc1[N+](=O)[O-]", "Potency": "inconclusive: 35.5 µM [activator, single point]"}
{"molecule": "CCOC(=O)Nc1cccc(NC(=O)c2cc(OC)cc(OC)c2)c1", "Potency": "inconclusive: 20 µM [activator, single point]"}
{"molecule": "C=C(C)CNC(=S)NNC(=O)CCn1c2ccccc2c2ccccc21", "Potency": "active: 7.08 µM"}
{"molecule": "CCOC(=O)N1CCN(S(=O)(=O)c2ccc(C(=O)N(CCN(C)C)c3nc4ccc(Cl)cc4s3)cc2)CC1", "Potency": "inactive"}
{"molecule": "CCn1c(SCC(=O)NC2CCCCC2C)nnc1-c1ccc(OC)cc1", "note": "(stereo unspecified)", "activity change, negative = inhibition": "inactive: 1.47% [at 10 µM]"}
{"molecule": "Cc1ccc(NC(=S)NCCC(c2ccccc2)c2ccccc2)c(C)c1", "Potency": "active: 3.55 µM"}
{"molecule": "O=C(CN1CC(=O)Oc2ccccc21)OCC(=O)c1ccc(F)cc1", "Potency": "inconclusive: 15.8 µM [inhibitor, single point]"}
{"molecule": "CC(=O)Nc1ccccc1OCC(=O)NC(C)c1ccccc1", "note": "(stereo unspecified)", "Potency": "inconclusive: 3.55 µM [activator, partial curve]"}
{"molecule": "COCCN(CCOC)S(=O)(=O)c1ccc(C(=O)Nc2nnc(CSC)o2)cc1", "Potency": "active: 5.01 µM"}
{"molecule": "COc1ccc(/C=C/C(=O)NC(=S)Nc2ccccc2)cc1OC", "Potency": "active: 10 µM"}
{"molecule": "Cc1cc(C)cc(-c2nc(-c3ccncc3)no2)c1", "Potency": "inconclusive: 35.5 µM [inhibitor, single point]"}
{"molecule": "NNc1nc(Nc2ccccc2)nc(N2CCCCC2)n1", "Potency": "active: 5.01 µM"}
{"molecule": "COc1ccc(-c2nc(CNS(=O)(=O)c3cc(OC)ccc3OC)cs2)cc1", "Potency": "inactive"}
{"molecule": "OC(c1ccccn1)(c1ccccn1)c1ccccn1", "Potency": "inconclusive: 14.1 µM [inhibitor, single point]"}
{"molecule": "CC(=O)CCc1oc2ccc(C)cc2c1-c1ccc(C)o1", "Potency": "inactive"}
{"molecule": "COCc1cc(S(=O)c2ccc(Cl)cc2)nc(C)n1", "note": "(stereo unspecified)", "Potency": "active: 4.47 µM"}
{"molecule": "O=C(CC(NS(=O)(=O)c1ccc(Cl)cc1)c1ccco1)NCc1ccco1", "note": "(stereo unspecified)", "Potency": "inconclusive: 17.8 µM [activator, single point]"}
{"molecule": "COc1ccc(C(=O)Nc2cc(C)on2)cc1S(=O)(=O)N1CC(c2ccccc2)CC1=O", "note": "(stereo unspecified)", "Potency": "inactive"}
{"molecule": "O=C(O)c1ccc(N/N=C/C=C/c2ccccc2[N+](=O)[O-])cc1", "Potency": "inconclusive: 28.2 µM [activator, single point]"}
{"molecule": "O=C(Cc1ccccc1F)Nc1nc(-c2cccs2)cs1", "Potency": "inconclusive: 8.91 µM [activator, partial curve]"}
{"molecule": "CCN(CC)S(=O)(=O)c1ccc(C)c(NC(=O)CSc2nc3ccc(C)cc3[nH]2)c1", "Potency": "inconclusive: 8.91 µM [activator, partial curve]"}
{"molecule": "Cc1ccc(S(=O)(=O)N(C)C)cc1NC(=S)N1CCc2ccccc21", "Potency": "active: 10 µM"}
{"molecule": "COCCn1c(=O)[nH]c(=O)c2c1nc(-c1ccc(-c3ccc(Cl)cc3[N+](=O)[O-])o1)n2Cc1ccccc1", "Potency": "inconclusive: 3.55 µM [inhibitor, full curve, poor fit]"}
{"molecule": "CCCOc1ccc(Cc2c(Cl)nc(SC)nc2OC)cc1", "Potency": "inactive"}
{"molecule": "CC1(C)CC(=O)C/C(=N/Nc2nc3ccccc3s2)C1", "Potency": "active: 8.91 µM"}
{"molecule": "Cc1cccc(NC(=O)CCN2CCN(C)CC2)c1", "activity change, negative = inhibition": "inactive: 12.2% [at 1.91 µM]"}
{"molecule": "COC(=O)c1ccc(CN(C(C)=O)c2ccccc2)o1", "Potency": "inactive"}
{"molecule": "Fc1ccc(Sc2nc(-c3ccccc3)nnc2C(F)(F)F)cc1", "Potency": "active: 5.62 µM"}
{"molecule": "COc1ccc(NC(=O)c2c(C(F)(F)F)nn(C)c2SCc2ccccc2)cc1", "Potency": "inactive"}
{"molecule": "COc1ccc(C(=O)Nc2cccc(-c3nc4ncccc4o3)c2C)cc1", "Potency": "inconclusive: 22.4 µM [inhibitor, single point]"}
{"molecule": "Cc1cc(C(=O)COc2cccnc2[N+](=O)[O-])c(C)n1-c1ccccc1", "Potency": "inconclusive: 31.6 µM [activator, single point]"}
{"molecule": "COc1ccc(NC(=O)N2CCCC3(CCN(C(=O)c4cccc(F)c4)CC3)C2)cc1", "Potency": "inactive"}
{"molecule": "CCNc1nc(Oc2c(Cl)cccc2Cl)cc(C(F)(F)F)n1", "Potency": "inconclusive: 1.26 µM [activator, full curve, poor fit]"}
{"molecule": "Cc1ccc(Nc2nc3ccccc3s2)cc1", "Potency": "inconclusive: 14.1 µM [inhibitor, single point]"}
{"molecule": "CC(C)NC(=O)[C@@H]1C[C@@]1(C)[C@@H](NC(=O)OCc1ccccc1)c1ccccc1", "Potency": "inconclusive: 7.94 µM [activator, partial curve]"}
{"molecule": "COC(=O)c1ccc(NC(=O)CSC2=Nc3ccccc3C3CC=NN23)cc1", "note": "(stereo unspecified)", "Potency": "inactive"}
{"molecule": "COc1ccc2[nH]cc(S(=O)(=O)c3ccc(F)cc3)c(=O)c2c1", "Potency": "inactive"}
{"molecule": "Cc1cc(NC(=O)COc2cccc(Oc3ccccc3)c2)no1", "activity change, negative = inhibition": "inactive: 39.4% [at 0.365 µM]"}
{"molecule": "Cc1cc(C)c2c(c1)/C(=N/NC(=O)c1ccc(O)cc1)CCC2", "Potency": "inconclusive: 28.2 µM [inhibitor, single point]"}
{"molecule": "Cc1nnc(SCC(=O)N2CCOCC2)c2ccccc12", "Potency": "inconclusive: 35.5 µM [inhibitor, single point]"}
{"molecule": "COc1ccc(C2=Nn3c(nnc3-c3ccc(OC)cc3OC)SC2)cc1", "Potency": "inconclusive: 35.5 µM [activator, single point]"}
{"molecule": "Clc1ccccc1Nc1ncnc2c1nnn2Cc1ccccc1", "Potency": "inconclusive: 35.5 µM [activator, single point]"}
{"molecule": "COc1ccc2nc(N/C(N)=N/C(=S)Nc3cccc(C)c3)nc(C)c2c1", "Potency": "active: 3.55 µM"}
{"molecule": "c1ccc(C2NCCc3ccccc32)cc1", "note": "(stereo unspecified)", "Potency": "inactive"}
{"molecule": "NNc1nc(-c2ccccc2)cs1", "Potency": "inconclusive: 17.8 µM [inhibitor, single point]"}
{"molecule": "O=C(COC(=O)Cc1ccccc1F)Nc1ccc(SC(F)F)cc1", "Potency": "inconclusive: 35.5 µM [activator, single point]"}
{"molecule": "COC(=O)N/N=C/c1cc(C)n(-c2cccc3ccccc23)c1C", "Potency": "inactive"}
{"molecule": "O=C(NNC(=O)c1cc(-c2ccccc2)nn1-c1ccccc1)c1ccccc1", "Potency": "inconclusive: 22.4 µM [inhibitor, single point]"}
{"molecule": "CC1=C(C(=O)OC2CCCCCC2)C(c2ccc(C)o2)C2=C(CCCC2=O)N1", "note": "(stereo unspecified)", "Potency": "inconclusive: 0.126 µM [activator, single point]"}
{"molecule": "OCCOc1ccc(CN2CCN(CCCc3ccccc3)C(CCO)C2)cc1", "note": "(stereo unspecified)", "Potency": "inactive"}
{"molecule": "CSc1ccccc1NC(=O)CN(C)CC(=O)Nc1ccc(Cl)cc1[N+](=O)[O-]", "Potency": "active: 11.2 µM"}
{"molecule": "O=C(O)CCC(=O)N1CCN(S(=O)(=O)c2ccc3ccccc3c2)CC1", "Potency": "inactive"}
